Laboratory results reported in article PMC10252594 (Cancers, 2023).

Tested on: LAPC-4 cells
Test: Total cholesterol in LAPC-4 cells (kit)
Assay type: cell-based, human
Conditions: Table S2
Procedure: A cholesterol quantification kit provided by Sigma-Aldrich (Catalog Number MAK043) was used following the manufacturer’s instructions to determine the concentration of total cholesterol, free cholesterol, and cholesteryl ester in samples. The cholesterol contents were measured in samples from two different protocols. Firstly, in LAPC-4 cells treated (18, 36, and 72 h) or not with RM-581 (2 µM) or atorvastatin (10 µM). Secondly, in tumor, liver, and plasma obtained at the end of the LAPC-4 xenograft experiment (control group and the group treated with RM-581 at 10 mg/kg/PO).

With CC(C)c1c(C(=O)Nc2ccccc2)c(-c2ccccc2)c(-c2ccc(F)cc2)n1CC[C@@H](O)C[C@@H](O)CC(=O)O [atorvastatin, reference compound] the “Total cholesterol concentration in LAPC-4 cells” value (“Total cholesterol concentration” below) (18 h, RM-581 2 μM or atorvastatin 10 μM) was 59 ± 3.5, the “Total cholesterol concentration” value (36 h, RM-581 2 μM or atorvastatin 10 μM) was 61 ± 0.4 and the “Total cholesterol concentration” value (72 h (first line, control 66 ± 2), RM-581 2 μM or atorvastatin 10 μM) was 70 ± 1. The “Total cholesterol concentration” value (72 h (second line, control 108 ± 6.5), atorvastatin 10 μM) was 50 ± 2.
